Test results taken from patent US20110098242A1, “Methods and Compositions for Diagnosing and Treating Cervical Intraepithelial Neoplasia and Cervical Cancer” (priority 2008, published 2011).
Results are given in words; binding and its absence hold for the method and conditions named. In cells and extracts the contact can be indirect. Some binding calls cover weakened binding; strength is not graded here. Where a sequence is shown, tags or fusion partners need not be part of it.

Chains of the proteins cited; added tags and fusions are not shown.
UniProt P03129: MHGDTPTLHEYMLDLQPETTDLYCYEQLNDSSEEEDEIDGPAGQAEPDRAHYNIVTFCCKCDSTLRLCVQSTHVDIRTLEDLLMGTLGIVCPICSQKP

Key:
[1] = molecular target: T1, cystatin E/M protein (wild type, human), expressed from plasmid p3XFLAG-CMV-10 in transfected HeLa cells (human) (UniProt Q15828); test: co-immunoprecipitation from co-transfected HeLa cells, Western blot with cystatin E/M antibody
T1 sequence: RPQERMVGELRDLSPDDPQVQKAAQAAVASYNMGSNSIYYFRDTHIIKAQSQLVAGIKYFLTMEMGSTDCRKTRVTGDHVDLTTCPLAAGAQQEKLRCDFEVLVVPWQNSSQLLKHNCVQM

[2] = molecular target: T1, cystatin E/M protein (wild type, human), expressed from plasmid p3XFLAG-CMV-10 in transfected HeLa cells (human); test: co-immunoprecipitation with anti-E7 antibody from co-transfected HeLa cell lysates, Western blot with cystatin E/M antibody

HPV 16 E7 protein (from UniProt P03129 1-98)
binding [1]: binds
binding [2]: binds
